Measured values from PMC6232469.
Results are given in words; binding and its absence hold for the method and conditions named. In cells and extracts the contact can be indirect. These calls come from enrichment with a bait or labelling near it, and not all partners need be listed.

Amino acid sequences for entries named in this document (tags omitted).
UniProt P03431: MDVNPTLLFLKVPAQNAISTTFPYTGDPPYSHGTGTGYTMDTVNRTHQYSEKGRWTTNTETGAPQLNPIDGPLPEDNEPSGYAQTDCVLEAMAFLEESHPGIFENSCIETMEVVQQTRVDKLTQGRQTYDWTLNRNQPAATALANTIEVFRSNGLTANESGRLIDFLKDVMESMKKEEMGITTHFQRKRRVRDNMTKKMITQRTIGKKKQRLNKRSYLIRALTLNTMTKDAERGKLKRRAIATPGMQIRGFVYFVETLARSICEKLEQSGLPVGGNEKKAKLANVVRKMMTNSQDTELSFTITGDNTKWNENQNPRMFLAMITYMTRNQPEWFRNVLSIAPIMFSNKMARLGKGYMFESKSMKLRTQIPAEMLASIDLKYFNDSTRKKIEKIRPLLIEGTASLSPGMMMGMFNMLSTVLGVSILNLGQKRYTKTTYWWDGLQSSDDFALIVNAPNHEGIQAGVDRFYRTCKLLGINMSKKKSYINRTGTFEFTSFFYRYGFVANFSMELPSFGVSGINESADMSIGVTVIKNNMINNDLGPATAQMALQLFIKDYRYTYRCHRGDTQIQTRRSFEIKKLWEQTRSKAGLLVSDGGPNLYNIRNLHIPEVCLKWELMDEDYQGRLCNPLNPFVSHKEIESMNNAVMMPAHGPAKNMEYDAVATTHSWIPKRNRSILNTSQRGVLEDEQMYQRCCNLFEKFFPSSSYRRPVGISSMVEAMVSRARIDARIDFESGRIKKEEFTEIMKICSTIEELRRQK

B1: FKBP4 (protein, UniProt Q02790 1-459)
chain: MTAEEMKATESGAQSAPLPMEGVDISPKQDEGVLKVIKREGTGTEMPMIGDRVFVHYTGWLLDGTKFDSSLDRKDKFSFDLGKGEVIKAWDIAIATMKVGEVCHITCKPEYAYGSAGSPPKIPPNATLVFEVELFEFKGEDLTEEEDGGIIRRIQTRGEGYAKPNEGAIVEVALEGYYKDKLFDQRELRFEIGEGENLDLPYGLERAIQRMEKGEHSIVYLKPSYAFGSVGKEKFQIPPNAELKYELHLKSFEKAKESWEMNSEEKLEQSTIVKERGTVYFKEGKYKQALLQYKKIVSWLEYESSFSNEEAQKAQALRLASHLNLAMCHLKLQAFSAAIESCNKALELDSNNEKGLFRRGEAHLAVNDFELARADFQKVLQLYPNNKAAKTQLAVCQQRIRRQLAREKKLYANMFERLAEEENKAKAEASSGDHPTDTEMKEEQKSNTAGSQSQVETEA
B2: KHSRP (protein, UniProt Q92945 1-711)
chain: MSDYSTGGPPPGPPPPAGGGGGAGGAGGGPPPGPPGAGDRGGGGPGGGGPGGGSAGGPSQPPGGGGPGIRKDAFADAVQRARQIAAKIGGDAATTVNNSTPDFGFGGQKRQLEDGDQPESKKLASQGDSISSQLGPIHPPPRTSMTEEYRVPDGMVGLIIGRGGEQINKIQQDSGCKVQISPDSGGLPERSVSLTGAPESVQKAKMMLDDIVSRGRGGPPGQFHDNANGGQNGTVQEIMIPAGKAGLVIGKGGETIKQLQERAGVKMILIQDGSQNTNVDKPLRIIGDPYKVQQACEMVMDILRERDQGGFGDRNEYGSRIGGGIDVPVPRHSVGVVIGRSGEMIKKIQNDAGVRIQFKQDDGTGPEKIAHIMGPPDRCEHAARIINDLLQSLRSGPPGPPGGPGMPPGGRGRGRGQGNWGPPGGEMTFSIPTHKCGLVIGRGGENVKAINQQTGAFVEISRQLPPNGDPNFKLFIIRGSPQQIDHAKQLIEEKIEGPLCPVGPGPGGPGPAGPMGPFNPGPFNQGPPGAPPHAGGPPPHQYPPQGWGNTYPQWQPPAPHDPSKAAAAAADPNAAWAAYYSHYYQQPPGPVPGPAPAPAAPPAQGEPPQPPPTGQSDYTKAWEEYYKKIGQQPQQPGAPPQQDYTKAWEEYYKKQAQVATGGGPGAPPGSQPDYSAAWAEYYRQQAAYYGQTPGPGGPQPPPTQQGQQQAQ
B3: MIF (protein, UniProt P14174 1-115)
chain: MPMFIVNTNVPRASVPDGFLSELTQQLAQATGKPPQYIAVHVVPDQLMAFGGSSEPCALCSLHSIGKIGGAQNRSYSKLLCGLLAERLRISPDRVYINYYDMNAANVGWNNSTFA
B4: HNRNPR (protein, UniProt O43390 1-633)
chain: MANQVNGNAVQLKEEEEPMDTSSVTHTEHYKTLIEAGLPQKVAERLDEIFQTGLVAYVDLDERAIDALREFNEEGALSVLQQFKESDLSHVQNKSAFLCGVMKTYRQREKQGSKVQESTKGPDEAKIKALLERTGYTLDVTTGQRKYGGPPPDSVYSGVQPGIGTEVFVGKIPRDLYEDELVPLFEKAGPIWDLRLMMDPLSGQNRGYAFITFCGKEAAQEAVKLCDSYEIRPGKHLGVCISVANNRLFVGSIPKNKTKENILEEFSKVTEGLVDVILYHQPDDKKKNRGFCFLEYEDHKSAAQARRRLMSGKVKVWGNVVTVEWADPVEEPDPEVMAKVKVLFVRNLATTVTEEILEKSFSEFGKLERVKKLKDYAFVHFEDRGAAVKAMDEMNGKEIEGEEIEIVLAKPPDKKRKERQAARQASRSTAYEDYYYHPPPRMPPPIRGRGRGGGRGGYGYPPDYYGYEDYYDDYYGYDYHDYRGGYEDPYYGYDDGYAVRGRGGGRGGRGAPPPPRGRGAPPPRGRAGYSQRGAPLGPPRGSRGGRGGPAQQQRGRGSRGSRGNRGGNVGGKRKADGYNQPDSKRRQTNNQQNWGSQPIAQQPLQQGGDYSGNYGYNNDNQEFYQDTYGQQWK
B5: MCDRH (protein, UniProt K0J110 1-731)
chain: MPGKLLWGDIMELEDPWRSPRARRRRGKRVTEGSQGTIMTLMRNQKLEKNVLQMTWMLPRPKKSKMKEKLNGDTEEGFNRLSDEFSKSHKSRRKDLPNGDIDEYEKKSKRVSSLDTSTHKSSDNKLEETLTREQKEGAFSNFPISEETIKLLKGRGVTYLFPIQLKTFGHVYEGKDLIAQARTGTGKTFSFAIPLIERLQRNQETIKKSRSPKVLVLAPTRELANQVAKDFKDITRKLSVACFYGGTSYQSQINHIRNGIDILVGTPGRIKDHLQSGRLDLSKLRHVVLDEVDQMLDLGFAEQVEDIIHESYKTDSEDNPQTLLFSATCPQWVYKVAKKYMKSRYEQVALVGKMTQKAATPVEHLAIQCHWSQRPAVIGDVLQVYSGSEGRAIIFCETKKNVTEMAMNPHIKQNAQCLHGDIAQSQREITLKGFREGSFKVLVATNVAARGLDNPEVDLVIQSSPPQDVESYIHRSGRTGRAGRTGICICFYQPRERGQLRYVEQKAGITFKRVGVPSTMDLVKSKSMDAIRSLASVSYAAVSAQRLIEEKGAVDALAAALAHISGASSFEPRSLITSDKGFVTMTLESLEEYRMSAVAWKELNRKLSSNAVSQITRMCLLKGIWGVCFDVPTTESERLQAEWHDSDWILSVPAKLPEIEEYYDGNTSSNSRQRSGWSSGRSGRSGRSGGRSGGRSGRQSRQGSRSGSRQDGRRRSGNRNRSRSGGPQTEF

target: Flag-PB1 (Flag-tagged polymerase basic protein 1 of A/Puerto Rico/8/1934 H1N1) (influenza A virus A/Puerto Rico/8/1934 (PR8, H1N1)) (UniProt P03431); assay: affinity purification with mass spectrometry

Row | Binder | binding
1 | B1 | binds
2 | B2 | binds
3 | B3 | binds
4 | B4 | binds
5 | B5 | binds
